For at least one compound, name, drawing or mass did not settle the structure.
Key:
Rat L6 cells [1] = test: Glucose uptake rate (3H-2-deoxy-glucose) in differentiated skeletal muscle cells, basal and insulin stimulated; format: cell-based; details: palmitate 480 μM, low glucose content (5.5 mM); FIG. 3
Rat L6 cells [2] = test: Glucose oxidation rate by 14CO2 trapping method in adherent cells; format: cell-based; details: increasing concentrations of palmitate, glucose maintained at 5.5 mM; FIG. 5

Compound: CCCCCCCCCCCCCCCC(=O)O [palmitate]
- basal glucose uptake rate compared to control level (Rat L6 cells [1]): slightly increased
- insulin effect on glucose uptake (insulin stimulatable glucose uptake) (Rat L6 cells [1]): strongly inhibited
- insulin dependent increase of glucose oxidation rates (Rat L6 cells [2]): decreased in a dose dependent mode

Reference: patent US20010021499A1, “Method for preparing a model system for cellular insulin resistance and device for use with the model system” (priority 1999, published 2001)
